Experimental data: PubChem BioAssay AID686943 (Drosophila RNAi Screening Center, 2013)
The screen tested about 23,000 reagents; shown is a random part of those that have a named target and a result. 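Extra replicates exist only for a retested subset of genes; insulin dose and duration not given; both raised and lowered dpERK matter.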 Further read-outs or replicates are left out here. Not stated in the record: the amount of reagent, the time to read-out.

Aim: 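Search across the genome for regulators of signalling from receptor tyrosine kinase to ERK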 (primary screen)
Cell system: Drosophila S2R+ haemocyte-like cells expressing YFP-tagged ERK (Rolled)
Knock-down reagent: long dsRNA against Drosophila genes
Conditions: insulin stimulation versus unstimulated cells; dose and duration not given
Detection: 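Antibody staining for doubly phosphorylated ERK divided by ERK-YFP signal, as plate z-scores, in insulin-treated and untreated cells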
Direction: replicate 1, z-score of dpERK with insulin and replicate 2, z-score of dpERK with insulin: higher = more active ERK per ERK-YFP after insulin

For Trxr2 [DRSC11900], what does the deposit list?
replicate 1, z-score of dpERK with insulin: 0.28; replicate 2, z-score of dpERK with insulin: 0.63

With Ubc10 [DRSC07568], what does the deposit list?
replicate 1, z-score of dpERK with insulin: -1.03; replicate 2, z-score of dpERK with insulin: 0.51

What did the screen give for Dyb [DRSC07208]?
replicate 1, z-score of dpERK with insulin: 0.16; replicate 2, z-score of dpERK with insulin: -0.68

With Dyb [DRSC22862], how do the results read?
replicate 1, z-score of dpERK with insulin: -0.63; replicate 2, z-score of dpERK with insulin: 0.22

With Gagr [DRSC10441], what does the deposit list?
replicate 1, z-score of dpERK with insulin: 0.5; replicate 2, z-score of dpERK with insulin: -0.27

How did the screen score CG12951 [DRSC14579]?
replicate 1, z-score of dpERK with insulin: -0.12; replicate 2, z-score of dpERK with insulin: 0.09

What is on record for Tssk [DRSC14784]?
replicate 1, z-score of dpERK with insulin: 0.5; replicate 2, z-score of dpERK with insulin: 0.72

With st [DRSC11399], how do the results read?
replicate 1, z-score of dpERK with insulin: -1.49; replicate 2, z-score of dpERK with insulin: -0.03

With CG10839 [DRSC01965], what was measured?
replicate 1, z-score of dpERK with insulin: -0.74; replicate 2, z-score of dpERK with insulin: -0.56

What did the screen give for spd-2 [DRSC09682]?
replicate 1, z-score of dpERK with insulin: -0.01; replicate 2, z-score of dpERK with insulin: 2.72

Which result is listed for CG31437 [DRSC13711]?
replicate 1, z-score of dpERK with insulin: 0.58; replicate 2, z-score of dpERK with insulin: 0.54

What did the screen give for Rpt3R [DRSC16501]?
replicate 1, z-score of dpERK with insulin: -1.54; replicate 2, z-score of dpERK with insulin: -2.74

What is on record for TrpRS-m [DRSC10848]?
replicate 1, z-score of dpERK with insulin: -0.74; replicate 2, z-score of dpERK with insulin: -0.18

What did the screen give for CG11342 [DRSC08175]?
replicate 1, z-score of dpERK with insulin: -0.11; replicate 2, z-score of dpERK with insulin: 0.55

Targets above whose gene name starts with T or t (3):
Trxr2 [DRSC11900] — replicate 1, z-score of dpERK with insulin: 0.28; replicate 2, z-score of dpERK with insulin: 0.63
Tssk [DRSC14784] — replicate 1, z-score of dpERK with insulin: 0.5; replicate 2, z-score of dpERK with insulin: 0.72
TrpRS-m [DRSC10848] — replicate 1, z-score of dpERK with insulin: -0.74; replicate 2, z-score of dpERK with insulin: -0.18

The listing continues.
What is on record for eys [DRSC00113]?
replicate 1, z-score of dpERK with insulin: -2.5; replicate 2, z-score of dpERK with insulin: 0.22

Which result is listed for eys [DRSC00402]?
replicate 1, z-score of dpERK with insulin: -2.06; replicate 2, z-score of dpERK with insulin: -0.94

With eys [DRSC00403], how do the results read?
replicate 1, z-score of dpERK with insulin: 0.63; replicate 2, z-score of dpERK with insulin: 0.18

How did the screen score eys [DRSC00695]?
replicate 1, z-score of dpERK with insulin: -0.2; replicate 2, z-score of dpERK with insulin: -0.16

What did the screen give for CG33483 [DRSC14019]?
replicate 1, z-score of dpERK with insulin: 0.13; replicate 2, z-score of dpERK with insulin: -0.3

With Flad2 [DRSC02531], what does the deposit list?
replicate 1, z-score of dpERK with insulin: 1.19; replicate 2, z-score of dpERK with insulin: 0.54

With CG15211 [DRSC19657], what does the deposit list?
replicate 1, z-score of dpERK with insulin: 3.21; replicate 2, z-score of dpERK with insulin: 0.94

How did the screen score kis [DRSC00521]?
replicate 1, z-score of dpERK with insulin: 0.13; replicate 2, z-score of dpERK with insulin: 0.37

Which result is listed for kis [DRSC00625]?
replicate 1, z-score of dpERK with insulin: -2.47; replicate 2, z-score of dpERK with insulin: -1.48

With kis [DRSC00823], what was measured?
replicate 1, z-score of dpERK with insulin: -0.21; replicate 2, z-score of dpERK with insulin: -0.95

With BtbVII [DRSC08151], what was measured?
replicate 1, z-score of dpERK with insulin: -2.21; replicate 2, z-score of dpERK with insulin: 0.14

With BtbVII [DRSC08415], what was measured?
replicate 1, z-score of dpERK with insulin: -0.82; replicate 2, z-score of dpERK with insulin: 2.48

With Atg4b [DRSC15988], what was measured?
replicate 1, z-score of dpERK with insulin: 0.25; replicate 2, z-score of dpERK with insulin: -0.13

For cv-c [DRSC14969], what does the deposit list?
replicate 1, z-score of dpERK with insulin: 0.01; replicate 2, z-score of dpERK with insulin: 0.58

With cv-c [DRSC14970], how do the results read?
replicate 1, z-score of dpERK with insulin: 0.78; replicate 2, z-score of dpERK with insulin: 0.47

For cv-c [DRSC14971], what was measured?
replicate 1, z-score of dpERK with insulin: -2.75; replicate 2, z-score of dpERK with insulin: -0.13

With cv-c [DRSC14972], what does the deposit list?
replicate 1, z-score of dpERK with insulin: 0.39; replicate 2, z-score of dpERK with insulin: 0.25

For cv-c [DRSC14973], what was measured?
replicate 1, z-score of dpERK with insulin: 0.54; replicate 2, z-score of dpERK with insulin: 0.49

With cv-c [DRSC16428], what does the deposit list?
replicate 1, z-score of dpERK with insulin: -0.18; replicate 2, z-score of dpERK with insulin: 0.42
